These are yes or no findings as the source states them, for the method shown. Binding seen in cells or lysates may run through a third protein.
Target: T1, dBRE1 (Drosophila (endogenous in embryos)) (UniProt Q9VRP9)
T1 sequence: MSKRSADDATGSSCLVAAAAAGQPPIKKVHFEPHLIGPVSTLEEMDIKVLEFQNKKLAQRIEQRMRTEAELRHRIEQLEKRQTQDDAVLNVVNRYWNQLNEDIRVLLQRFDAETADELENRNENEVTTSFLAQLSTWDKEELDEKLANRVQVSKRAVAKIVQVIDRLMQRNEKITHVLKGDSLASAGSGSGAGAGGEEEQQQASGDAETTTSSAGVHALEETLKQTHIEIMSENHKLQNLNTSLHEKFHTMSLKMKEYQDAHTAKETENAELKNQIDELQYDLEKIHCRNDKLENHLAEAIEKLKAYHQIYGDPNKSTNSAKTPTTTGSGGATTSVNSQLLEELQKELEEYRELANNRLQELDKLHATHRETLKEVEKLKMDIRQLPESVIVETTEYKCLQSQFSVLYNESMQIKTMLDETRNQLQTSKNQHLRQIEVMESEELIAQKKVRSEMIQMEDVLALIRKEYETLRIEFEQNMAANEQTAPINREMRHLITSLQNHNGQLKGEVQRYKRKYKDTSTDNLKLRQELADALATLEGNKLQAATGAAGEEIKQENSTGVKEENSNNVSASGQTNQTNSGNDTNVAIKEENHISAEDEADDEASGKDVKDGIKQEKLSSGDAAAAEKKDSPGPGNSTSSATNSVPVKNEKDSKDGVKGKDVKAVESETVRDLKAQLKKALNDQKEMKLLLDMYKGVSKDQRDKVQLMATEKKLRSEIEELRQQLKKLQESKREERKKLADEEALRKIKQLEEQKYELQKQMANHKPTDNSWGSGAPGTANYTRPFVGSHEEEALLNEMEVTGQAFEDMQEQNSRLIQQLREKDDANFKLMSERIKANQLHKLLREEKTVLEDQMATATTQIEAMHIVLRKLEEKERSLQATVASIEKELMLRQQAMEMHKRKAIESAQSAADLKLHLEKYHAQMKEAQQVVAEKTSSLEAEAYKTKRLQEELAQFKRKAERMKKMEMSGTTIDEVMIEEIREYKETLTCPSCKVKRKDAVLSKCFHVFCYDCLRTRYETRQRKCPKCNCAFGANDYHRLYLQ
Assay: co-IP; Drosophila embryonic nuclear protein extracts; IP with antibodies against the endogenous proteins (dRYBP, SCE, dKDM2, dBRE1; reverse: PSC, PC, PH, E(Z)); Western blot; mock: pre-immune serum

B1: SCE (protein, UniProt Q9VB08 1-435)
chain: MTSLDPAPNKTWELSLYELQRKPQEVITDSTEIAVSPRSLHSELMCPICLDMLKKTMTTKECLHRFCSDCIVTALRSGNKECPTCRKKLVSKRSLRADPNFDLLISKIYPSREEYEAIQEKVMAKFNQTQSQQALVNSINEGIKLQSQNRPQRFRTKGGGGGGGGGGNGNGAANVAAPPAPGAPTAVGRNASNQMHVHDTASNDSNSNTNSIDRENRDPGHSGTSAASAITSASNAAPSSSANSGASTSATRMQVDDASNPPSVRSTPSPVPSNSSSSKPKRAMSVLTSERSEESESDSQMDCRTEGDSNIDTEGEGNGELGINDEIELVFKPHPTEMSADNQLIRALKENCVRYIKTTANATVDHLSKYLAMRLTLDLGADLPEACRVLNFCIYVAPQPQQLVILNGNQTLHQVNDKFWKVNKPMEMYYSWKKT
binding: no binding

— paper PMC4240632
